The list is a part of this screen's results and no random one: it is rich in T/C values a quarter to a half above the control, in often repeated tests (any T/C) and in doses without a T/C. Further doses and runs are listed elsewhere. T/C is the treated group as % of the vehicle group. Some entries give survivors of the animals treated and no T/C: the source files T/C as zero there, which appears to mark a toxic dose or a test without result, not a measured value. Some survivor counts are full or nearly so, which does not show that the dose was tolerated: the source hardly ever lists a survival T/C far under the control, and the zero likely stands for such cases as well. Survivors were counted at the toxicity check, usually on the fifth day, unless a day is given; later deaths do not show. Schedule codes are those of the source, read here as Q, the interval in days (D) or hours (H), X, the number of doses. Marks such as (2×) say how often a value occurs here. Some entries were tested several times; their values stand side by side, smallest first. For survival time, this PubChem deposit counts one and a half times the control or more as active, and values a quarter to a half above the control carry no call in these data; other NCI protocols may use other cut-offs. Some T/C values are followed by the survivors on the day toxicity was checked, most often the fifth; where none is given, no animal had died by that day.
Tested on: P388 leukemia ip, CD2F1 mice, survival T/C
Assay: NCI In Vivo Anticancer Drug Screen. Data for tumor model P388 Leukemia (intraperitoneal) in CD2F1 (CDF1) mice
Settings: T/C endpoint: median survival time, higher T/C = longer survival
[1] = dose: 3.75 mg/kg/injection, schedule: Q01DX009 (ip), vehicle: saline
[2] = dose: 7.5 mg/kg/injection, schedule: Q01DX009 (ip), vehicle: saline
[3] = dose: 15.0 mg/kg/injection, schedule: Q01DX009 (ip), vehicle: saline
[4] = dose: 50.0 mg/kg/injection, schedule: Q04DX003 (ip), vehicle: saline
[5] = dose: 200.0 mg/kg/injection, schedule: Q01DX009 (ip), vehicle: water
[6] = dose: 200.0 mg/kg/injection, schedule: Q01DX005 (ip), vehicle: saline with Tween-80
[7] = dose: 100.0 mg/kg/injection, schedule: Q01DX005 (ip), vehicle: saline with Tween-80
[8] = dose: 25.0 mg/kg/injection, schedule: Q01DX009 (ip), vehicle: saline with Tween-80
[9] = dose: 15.0 mg/kg/injection, schedule: Q01DX005 (ip), vehicle: saline with Tween-80
[10] = dose: 200.0 mg/kg/injection, schedule: Q01DX009 (ip), vehicle: saline with Tween-80
[11] = dose: 50.0 mg/kg/injection, schedule: Q01DX005 (ip), vehicle: saline with Tween-80

CN1CCC/C1=C/C(=O)c1ccc(Cl)cc1 was tested, and the T/C (dose: 400.0 mg/kg/injection, schedule: Q04DX003 (ip), vehicle: saline) was 125 % of control.

O=P(N1CCCCCC1)(N1CC1)N1CC1 was tested, and the survivor count (dose: 1.87 mg/kg/injection, schedule: Q01DX009 (ip), vehicle: saline) was 6 of 6, the T/C (dose: 1.88 mg/kg/injection, schedule: Q04DX003 (ip), vehicle: saline) was 134 % of control and the T/C [1] was 120, 125, 145 % of control. For the same molecule, the survivor count [1] was 6 of 6, the T/C [2] was 157, 169, 175 % of control and the survivor count [2] was 6 of 6. The T/C (dose: 7.5 mg/kg/injection, schedule: Q04DX003 (ip), vehicle: saline) was 133 % of control, the T/C [3] was 120, 209, 216 % of control and the survivor count [3] was 6 of 6. For the same molecule, the survivor count (dose: 30.0 mg/kg/injection, schedule: Q01DX009 (ip), vehicle: saline) was 6 of 6, the survivor count [4] was 6 of 6 and the survivor count (dose: 60.0 mg/kg/injection, schedule: Q04DX003 (ip), vehicle: saline) was 5 of 6.

For O=S(=O)(NC(=S)S)c1ccccc1, the T/C [5] was 128 and 135 % of control [5 of 6 alive], the survivor count [5] was 2 of 6 and the survivor count (dose: 400.0 mg/kg/injection, schedule: Q01DX009 (ip), vehicle: water) was 0 of 6 and 1 of 6.

In the case of COc1ccc2c(=O)c(-c3cc4c(cc3OC)OCO4)coc2c1, the survivor count (dose: 32.0 mg/kg/injection, schedule: Q01DX005 (ip), vehicle: Klucel (hydroxypropylcellulose) (HPC)) is reported as 6 of 6 and the survivor count (dose: 64.0 mg/kg/injection, schedule: Q01DX005 (ip), vehicle: Klucel (hydroxypropylcellulose) (HPC)) is reported as 6 of 6.

In the case of CCc1cnc(=S)n(-c2ccccc2)c1, the survivor count (dose: 400.0 mg/kg/injection, schedule: Q01DX001 (ip), vehicle: saline with Tween-80) is reported as 0 of 6.

For C[C@]12CC[C@@H]3c4ccc(OCCCO)c([N+](=O)[O-])c4CC[C@H]3[C@@H]1CCC2=O, the survivor count (dose: 400.0 mg/kg/injection, schedule: Q01DX005 (ip), vehicle: saline with Tween-80) was 6 of 6.

In the case of CCN(CC)CCNC1CC(C)CC(C)(C)C1 (stereo not drawn), the survivor count [6] is reported as 0 of 6.

For COC(=O)C1=NOC2C(=O)N(c3ccccc3)C(=O)C12 (stereo not drawn), the survivor count [6] was 0 of 6.

For CCOC(=O)NC(=O)CNc1ncc([N+](=O)[O-])s1, the survivor count (dose: 400.0 mg/kg/injection, schedule: Q01DX001 (ip), vehicle: Klucel (hydroxypropylcellulose) (HPC)) was 0 of 6.

Cc1cc2c(cc1NCc1ccccc1)C(C)C(=O)CCC(=O)N2Cc1ccccc1 (stereo not drawn) was tested, and the survivor count [7] was 6 of 6 and the survivor count [6] was 6 of 6.

With O=c1c2ncccc2cc2n1CCc1c-2[nH]c2ccccc12 the survivor count [8] was 6 of 6.

COc1cc2c[n+](C)c3ccccc3c2cc1OC was tested, and the T/C (dose: 25.0 mg/kg/injection, schedule: Q01DX009 (ip), vehicle: water) was 125 % of control, the T/C (dose: 50.0 mg/kg/injection, schedule: Q01DX009 (ip), vehicle: water) was 131 and 135 % of control and the T/C (dose: 100.0 mg/kg/injection, schedule: Q01DX009 (ip), vehicle: water) was 128 % of control. For the same molecule, the survivor count [5] was 0 of 6 and 1 of 6.

NC(CCl)=NCC12CC3CC(CC(C3)C1)C2 was tested, and the T/C (dose: 12.5 mg/kg/injection, schedule: Q01DX009 (ip), vehicle: saline) was 126 % of control, the T/C (dose: 25.0 mg/kg/injection, schedule: Q01DX009 (ip), vehicle: Klucel (hydroxypropylcellulose) (HPC)) was 128 % of control and the T/C (dose: 25.0 mg/kg/injection, schedule: Q01DX009 (ip), vehicle: saline) was 139 % of control. For the same molecule, the survivor count (dose: 50.0 mg/kg/injection, schedule: Q01DX009 (ip), vehicle: Klucel (hydroxypropylcellulose) (HPC)) was 3 of 6, the survivor count (dose: 50.0 mg/kg/injection, schedule: Q01DX009 (ip), vehicle: saline) was 3 of 6 and the survivor count (dose: 100.0 mg/kg/injection, schedule: Q01DX009 (ip), vehicle: saline) was 0 of 6. The survivor count (dose: 200.0 mg/kg/injection, schedule: Q01DX009 (ip), vehicle: saline) was 0 of 6.

For CC(C)C1CC2CCC3C(C)(C(=O)O)CCCC3(C)C2CC1CO (stereo not drawn), the survivor count (dose: 400.0 mg/kg/injection, schedule: Q04DX003 (ip), vehicle: saline with Tween-80) was 6 of 6.

With Nc1ccn(C2OC(COP(=O)(O)O)C(O)C2O)c(=O)n1 (stereo not drawn) the T/C (dose: 200.0 mg/kg/injection, schedule: Q04DX003 (ip), vehicle: saline with Tween-80) was 145 % of control.

With Nc1nc(N)c2nc(CNc3ccc(C(=O)NC(CCC(=O)O)C(=O)O)cc3F)cnc2n1 (stereo not drawn) the T/C (dose: 0.47 mg/kg/injection, schedule: Q01DX005 (ip), vehicle: saline with Tween-80) was 136 % of control, the T/C (dose: 0.93 mg/kg/injection, schedule: Q01DX005 (ip), vehicle: saline with Tween-80) was 145 % of control and the T/C (dose: 1.87 mg/kg/injection, schedule: Q01DX005 (ip), vehicle: saline with Tween-80) was 149 % of control. For the same molecule, the T/C (dose: 3.75 mg/kg/injection, schedule: Q01DX005 (ip), vehicle: saline with Tween-80, evaluated on day 20) was 157 % of control, the T/C (dose: 3.75 mg/kg/injection, schedule: Q01DX005 (ip), vehicle: saline with Tween-80, evaluated on day 30) was 169 and 181 % of control and the survivor count (dose: 3.75 mg/kg/injection, schedule: Q01DX005 (ip), vehicle: saline with Tween-80) was 6 of 6. The survivor count (dose: 7.5 mg/kg/injection, schedule: Q01DX005 (ip), vehicle: saline with Tween-80) was 6 of 6 (2×), the T/C [9] was 90 % of control and the survivor count [9] was 6 of 6 (2×). For the same molecule, the survivor count (dose: 30.0 mg/kg/injection, schedule: Q01DX005 (ip), vehicle: saline with Tween-80) was 6 of 6, the survivor count (dose: 60.0 mg/kg/injection, schedule: Q01DX005 (ip), vehicle: saline with Tween-80) was 5 of 6 and 6 of 6 and the survivor count (dose: 120.0 mg/kg/injection, schedule: Q01DX005 (ip), vehicle: saline with Tween-80) was 6 of 6. The survivor count (dose: 240.0 mg/kg/injection, schedule: Q01DX005 (ip), vehicle: saline with Tween-80) was 6 of 6.

O=C(Nc1ccc(Cl)c(Cl)c1)Sc1ccc(O)cc1 was tested, and the survivor count [10] was 6 of 6.

C=CC1CCCC[N+]1(C)Cc1ccccc1 (stereo not drawn) was tested, and the survivor count (dose: 25.0 mg/kg/injection, schedule: Q01DX005 (ip), vehicle: saline) was 2 of 6, the survivor count [11] was 0 of 6 and the survivor count [7] was 0 of 6. The survivor count [6] was 0 of 6.

In the case of CC1CN1P1(N2CC2C)=NP(N2CC2C)(N2CC2C)=NP(N2CC2C)(N2CC2C)=N1 (stereo not drawn), the T/C (dose: 12.5 mg/kg/injection, schedule: Q01DX009 (ip), vehicle: saline with Tween-80) is reported as 133 % of control, the T/C [8] is reported as 145 % of control and the T/C (dose: 44.0 mg/kg/injection, schedule: Q04DX003 (ip), vehicle: saline) is reported as 136 % of control. The T/C [4] was 137 % of control, the survivor count (dose: 150.0 mg/kg/injection, schedule: Q04DX003 (ip), vehicle: saline) was 6 of 6 and the survivor count [10] was 4 of 6.

CCCCCC1([N+](=O)[O-])CN(C)CC2CCCCN2C1 (stereo not drawn) was tested, and the survivor count (dose: 400.0 mg/kg/injection, schedule: Q04DX002 (ip), vehicle: saline) was 4 of 6.

In the case of CCC[CH2][Sn]1([CH2]CCC)[O]C(=O)CC[S]1, the T/C (dose: 12.5 mg/kg/injection, schedule: Q01DX005 (ip), vehicle: saline with Tween-80) is reported as 130 % of control [4 of 6 alive], the survivor count (dose: 25.0 mg/kg/injection, schedule: Q01DX005 (ip), vehicle: saline with Tween-80) is reported as 0 of 6 and 1 of 6 and the survivor count [11] is reported as 1 of 6. The survivor count [7] was 0 of 6 and the survivor count [6] was 0 of 6.

For C=CCC1=CC2(OC)C(=O)C(OC)(OC)C1C1C(OC)(OC)C(=O)C(OC)=CC12CC=C (stereo not drawn), the T/C (dose: 37.5 mg/kg/injection, schedule: Q01DX009 (ip), vehicle: Klucel (hydroxypropylcellulose) (HPC)) was 126 % of control and the T/C (dose: 150.0 mg/kg/injection, schedule: Q01DX009 (ip), vehicle: Klucel (hydroxypropylcellulose) (HPC)) was 133 % of control [5 of 6 alive].

With CN(C)CCO[Si](C)(C)[CH2][Sn]([CH3])([CH3])[CH3] the survivor count (dose: 240.0 mg/kg/injection, schedule: Q01DX005 (ip), vehicle: saline) was 0 of 6.

CCC(c1ccc(OCC(=O)OCCNCCCl)cc1)C(CC)c1ccc(OCC(=O)OCCNCCCl)cc1 (stereo not drawn) was tested, and the survivor count (dose: 400.0 mg/kg/injection, schedule: Q04DX002 (ip), vehicle: suspension in saline) was 1 of 6.

Source: PubChem BioAssay AID330 (DTP/NCI, 2004)
